# Measured values published in the supplement of paper PMC12823440, “Inhibitors supercharge kinase turnover through native proteolytic circuits” (Nature, 2025).
# The chains behind the UniProt entries cited, without tags or fusion partners. Where a name states a change or a piece, a line headed by the entry shows the natural chain unless it says otherwise.
# UniProt P14616: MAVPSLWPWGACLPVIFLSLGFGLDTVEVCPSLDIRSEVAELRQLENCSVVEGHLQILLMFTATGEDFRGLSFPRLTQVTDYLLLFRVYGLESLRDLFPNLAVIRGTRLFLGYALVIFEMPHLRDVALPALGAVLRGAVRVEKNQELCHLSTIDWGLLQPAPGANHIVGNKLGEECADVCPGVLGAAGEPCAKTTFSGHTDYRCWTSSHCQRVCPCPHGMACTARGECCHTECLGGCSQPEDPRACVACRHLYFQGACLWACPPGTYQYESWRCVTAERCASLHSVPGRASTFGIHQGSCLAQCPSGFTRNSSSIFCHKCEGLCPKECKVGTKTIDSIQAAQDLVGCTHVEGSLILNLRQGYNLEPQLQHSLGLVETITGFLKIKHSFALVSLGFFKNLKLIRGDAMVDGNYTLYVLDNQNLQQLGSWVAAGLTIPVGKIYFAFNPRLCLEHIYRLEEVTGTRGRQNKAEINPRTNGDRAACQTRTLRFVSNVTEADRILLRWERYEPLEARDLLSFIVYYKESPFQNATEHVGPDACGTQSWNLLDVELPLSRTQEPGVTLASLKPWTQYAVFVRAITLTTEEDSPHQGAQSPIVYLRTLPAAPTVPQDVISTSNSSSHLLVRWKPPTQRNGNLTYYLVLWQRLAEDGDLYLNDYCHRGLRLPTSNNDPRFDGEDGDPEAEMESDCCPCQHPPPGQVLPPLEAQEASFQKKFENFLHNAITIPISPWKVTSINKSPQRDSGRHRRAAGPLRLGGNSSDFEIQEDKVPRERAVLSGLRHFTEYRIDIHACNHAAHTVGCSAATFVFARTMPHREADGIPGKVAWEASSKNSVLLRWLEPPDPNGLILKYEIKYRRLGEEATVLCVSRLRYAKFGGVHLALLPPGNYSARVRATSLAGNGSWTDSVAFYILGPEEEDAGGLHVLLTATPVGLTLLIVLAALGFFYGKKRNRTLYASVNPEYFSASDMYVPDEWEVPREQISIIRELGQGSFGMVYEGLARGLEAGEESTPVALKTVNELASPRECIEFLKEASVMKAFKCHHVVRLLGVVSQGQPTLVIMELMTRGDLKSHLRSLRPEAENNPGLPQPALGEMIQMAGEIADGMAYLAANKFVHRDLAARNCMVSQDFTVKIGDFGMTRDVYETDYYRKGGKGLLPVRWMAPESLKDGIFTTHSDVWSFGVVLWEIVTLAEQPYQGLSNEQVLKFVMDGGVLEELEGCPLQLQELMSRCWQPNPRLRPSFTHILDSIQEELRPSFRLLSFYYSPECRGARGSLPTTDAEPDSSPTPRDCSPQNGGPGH
# UniProt P53667: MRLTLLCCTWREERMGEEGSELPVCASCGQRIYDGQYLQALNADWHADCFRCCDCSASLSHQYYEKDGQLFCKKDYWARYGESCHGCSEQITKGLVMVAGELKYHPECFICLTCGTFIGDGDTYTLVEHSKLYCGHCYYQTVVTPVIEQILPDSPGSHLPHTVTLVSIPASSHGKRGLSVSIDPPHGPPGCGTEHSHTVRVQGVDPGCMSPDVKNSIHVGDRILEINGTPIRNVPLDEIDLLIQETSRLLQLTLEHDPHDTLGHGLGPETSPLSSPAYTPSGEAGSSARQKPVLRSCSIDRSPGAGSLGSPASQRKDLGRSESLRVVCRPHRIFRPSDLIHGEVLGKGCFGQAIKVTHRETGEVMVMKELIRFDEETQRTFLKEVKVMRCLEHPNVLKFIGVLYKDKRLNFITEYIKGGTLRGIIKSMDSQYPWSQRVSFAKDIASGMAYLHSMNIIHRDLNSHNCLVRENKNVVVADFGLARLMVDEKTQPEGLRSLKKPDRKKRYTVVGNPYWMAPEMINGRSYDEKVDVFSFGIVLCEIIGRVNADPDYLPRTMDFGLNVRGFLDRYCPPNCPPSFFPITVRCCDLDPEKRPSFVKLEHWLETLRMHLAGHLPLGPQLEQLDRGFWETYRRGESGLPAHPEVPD
# UniProt P53671: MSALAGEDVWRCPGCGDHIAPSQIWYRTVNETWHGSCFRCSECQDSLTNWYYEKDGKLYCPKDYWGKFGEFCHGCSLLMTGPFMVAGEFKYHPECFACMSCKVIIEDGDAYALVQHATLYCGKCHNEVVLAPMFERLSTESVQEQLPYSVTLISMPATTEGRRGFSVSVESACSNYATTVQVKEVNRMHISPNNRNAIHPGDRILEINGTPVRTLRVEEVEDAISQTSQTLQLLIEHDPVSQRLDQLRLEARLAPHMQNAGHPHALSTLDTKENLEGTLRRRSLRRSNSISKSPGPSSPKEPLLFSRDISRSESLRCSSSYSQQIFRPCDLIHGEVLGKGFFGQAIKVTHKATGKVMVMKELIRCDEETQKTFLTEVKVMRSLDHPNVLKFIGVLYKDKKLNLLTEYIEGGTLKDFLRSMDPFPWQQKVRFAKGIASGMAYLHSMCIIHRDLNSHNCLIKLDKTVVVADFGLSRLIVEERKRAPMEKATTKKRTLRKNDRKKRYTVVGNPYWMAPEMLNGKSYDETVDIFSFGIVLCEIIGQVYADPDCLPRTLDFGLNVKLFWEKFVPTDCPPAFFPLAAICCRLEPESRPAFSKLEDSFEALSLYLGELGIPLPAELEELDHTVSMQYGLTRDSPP
# UniProt Q8IWU2: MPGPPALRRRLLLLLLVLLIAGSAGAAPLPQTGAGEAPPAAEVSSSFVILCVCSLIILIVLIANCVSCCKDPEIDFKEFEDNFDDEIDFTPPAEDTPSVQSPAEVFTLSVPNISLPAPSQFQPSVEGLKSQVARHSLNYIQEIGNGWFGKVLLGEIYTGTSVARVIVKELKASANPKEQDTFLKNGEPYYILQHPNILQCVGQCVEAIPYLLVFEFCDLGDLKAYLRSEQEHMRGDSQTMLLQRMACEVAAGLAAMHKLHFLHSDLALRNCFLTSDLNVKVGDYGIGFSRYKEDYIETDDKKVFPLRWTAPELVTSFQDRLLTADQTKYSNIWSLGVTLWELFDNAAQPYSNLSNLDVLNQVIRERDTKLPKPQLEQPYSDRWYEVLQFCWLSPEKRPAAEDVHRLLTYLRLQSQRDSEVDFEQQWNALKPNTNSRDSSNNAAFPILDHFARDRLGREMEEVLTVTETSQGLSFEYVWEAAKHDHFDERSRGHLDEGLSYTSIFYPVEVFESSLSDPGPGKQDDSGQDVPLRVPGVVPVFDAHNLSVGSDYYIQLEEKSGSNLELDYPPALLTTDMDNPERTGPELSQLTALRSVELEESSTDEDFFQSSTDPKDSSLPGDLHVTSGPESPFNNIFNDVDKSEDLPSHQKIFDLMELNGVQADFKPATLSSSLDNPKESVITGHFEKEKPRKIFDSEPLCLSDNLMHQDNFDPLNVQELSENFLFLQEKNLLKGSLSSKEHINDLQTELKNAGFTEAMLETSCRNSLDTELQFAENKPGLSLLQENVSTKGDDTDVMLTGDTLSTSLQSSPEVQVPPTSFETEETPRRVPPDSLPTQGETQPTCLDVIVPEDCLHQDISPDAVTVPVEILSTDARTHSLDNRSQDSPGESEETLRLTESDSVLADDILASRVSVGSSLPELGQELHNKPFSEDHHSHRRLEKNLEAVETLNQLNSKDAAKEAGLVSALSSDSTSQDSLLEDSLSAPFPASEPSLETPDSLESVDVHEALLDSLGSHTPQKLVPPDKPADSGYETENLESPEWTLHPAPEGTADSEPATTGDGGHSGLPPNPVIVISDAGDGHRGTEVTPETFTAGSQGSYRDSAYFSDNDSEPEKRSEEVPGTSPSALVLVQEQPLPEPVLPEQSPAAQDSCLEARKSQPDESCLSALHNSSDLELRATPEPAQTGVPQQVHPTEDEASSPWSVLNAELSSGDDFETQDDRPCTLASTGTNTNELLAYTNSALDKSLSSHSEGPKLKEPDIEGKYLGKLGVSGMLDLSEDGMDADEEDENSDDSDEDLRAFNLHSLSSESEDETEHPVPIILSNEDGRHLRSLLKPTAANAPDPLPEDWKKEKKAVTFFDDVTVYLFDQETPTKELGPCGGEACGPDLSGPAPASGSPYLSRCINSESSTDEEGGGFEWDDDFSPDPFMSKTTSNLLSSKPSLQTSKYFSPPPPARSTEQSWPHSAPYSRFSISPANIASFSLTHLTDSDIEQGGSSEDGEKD
# UniProt P07948: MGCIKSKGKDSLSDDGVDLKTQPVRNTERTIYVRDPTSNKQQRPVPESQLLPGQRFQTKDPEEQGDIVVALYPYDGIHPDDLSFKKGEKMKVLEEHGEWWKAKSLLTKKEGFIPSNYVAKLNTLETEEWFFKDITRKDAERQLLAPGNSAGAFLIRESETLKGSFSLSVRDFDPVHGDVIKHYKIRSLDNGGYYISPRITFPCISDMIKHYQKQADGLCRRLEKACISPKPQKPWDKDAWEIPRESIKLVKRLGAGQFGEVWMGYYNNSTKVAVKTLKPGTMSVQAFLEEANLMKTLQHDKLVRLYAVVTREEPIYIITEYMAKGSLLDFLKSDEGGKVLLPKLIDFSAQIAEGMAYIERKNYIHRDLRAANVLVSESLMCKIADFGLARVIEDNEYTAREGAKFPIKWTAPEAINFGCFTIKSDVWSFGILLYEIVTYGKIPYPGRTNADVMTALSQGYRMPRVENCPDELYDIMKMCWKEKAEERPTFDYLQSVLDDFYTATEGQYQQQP
# UniProt P49137, whole entry, looked up: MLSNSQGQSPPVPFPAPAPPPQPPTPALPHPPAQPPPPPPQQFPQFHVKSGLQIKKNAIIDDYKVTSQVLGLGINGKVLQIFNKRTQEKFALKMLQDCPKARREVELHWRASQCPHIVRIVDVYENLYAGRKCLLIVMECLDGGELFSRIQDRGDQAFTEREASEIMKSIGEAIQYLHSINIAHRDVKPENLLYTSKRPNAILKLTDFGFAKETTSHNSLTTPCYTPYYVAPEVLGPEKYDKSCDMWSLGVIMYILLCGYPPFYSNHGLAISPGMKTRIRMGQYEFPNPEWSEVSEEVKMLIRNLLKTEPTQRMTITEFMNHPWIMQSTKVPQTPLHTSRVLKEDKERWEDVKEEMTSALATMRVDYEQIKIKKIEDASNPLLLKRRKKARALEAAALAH
# UniProt Q9BUB5: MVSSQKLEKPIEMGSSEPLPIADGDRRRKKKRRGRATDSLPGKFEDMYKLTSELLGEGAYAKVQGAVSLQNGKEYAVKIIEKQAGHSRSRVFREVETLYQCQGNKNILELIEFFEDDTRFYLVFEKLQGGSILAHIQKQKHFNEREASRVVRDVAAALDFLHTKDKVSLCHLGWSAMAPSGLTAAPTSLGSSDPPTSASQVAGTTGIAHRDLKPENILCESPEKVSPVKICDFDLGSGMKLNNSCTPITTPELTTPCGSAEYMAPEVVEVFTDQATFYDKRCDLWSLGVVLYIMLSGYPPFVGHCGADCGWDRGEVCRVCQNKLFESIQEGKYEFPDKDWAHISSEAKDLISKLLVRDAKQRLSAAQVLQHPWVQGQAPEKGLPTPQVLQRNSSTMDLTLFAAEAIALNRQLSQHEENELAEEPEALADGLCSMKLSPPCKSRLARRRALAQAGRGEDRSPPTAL
# UniProt Q16620, whole entry, looked up: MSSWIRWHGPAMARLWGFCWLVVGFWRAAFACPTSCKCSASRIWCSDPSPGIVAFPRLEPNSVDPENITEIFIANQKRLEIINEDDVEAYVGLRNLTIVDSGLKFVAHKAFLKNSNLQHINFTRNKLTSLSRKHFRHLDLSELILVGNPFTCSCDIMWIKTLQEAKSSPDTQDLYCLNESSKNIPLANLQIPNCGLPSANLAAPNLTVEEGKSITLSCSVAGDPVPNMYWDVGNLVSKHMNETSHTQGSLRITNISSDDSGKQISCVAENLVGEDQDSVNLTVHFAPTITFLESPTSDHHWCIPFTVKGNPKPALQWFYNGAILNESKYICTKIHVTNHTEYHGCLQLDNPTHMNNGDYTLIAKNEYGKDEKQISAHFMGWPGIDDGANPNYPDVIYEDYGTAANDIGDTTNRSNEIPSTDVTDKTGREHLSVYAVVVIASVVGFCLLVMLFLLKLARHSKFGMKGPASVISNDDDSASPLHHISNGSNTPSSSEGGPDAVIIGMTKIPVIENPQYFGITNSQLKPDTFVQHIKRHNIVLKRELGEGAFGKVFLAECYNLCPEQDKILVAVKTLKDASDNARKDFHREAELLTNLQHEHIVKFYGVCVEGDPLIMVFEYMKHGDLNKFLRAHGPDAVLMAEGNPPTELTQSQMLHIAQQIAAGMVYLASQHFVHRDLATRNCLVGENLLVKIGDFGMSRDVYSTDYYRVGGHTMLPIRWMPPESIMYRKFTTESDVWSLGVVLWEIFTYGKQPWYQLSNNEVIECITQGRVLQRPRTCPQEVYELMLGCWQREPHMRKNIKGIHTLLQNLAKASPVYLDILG
# The list shows a part of the results. The calls rarely recur for the same compound in another form.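 Kinases were expressed as nanoluciferase fusions in K562 cells and luminescence was read every 4 h between 2 and 18 h as percent of control, DMSO set to 100% and a positive control to 0%. A time point counts as decreased when the signal drops significantly (2 sigma). The hit call is the authors' own, does not follow from the count of time points alone, and its rule is not shown.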
# Key:
# Test in all cases: number of time points (of 5) at which kinase-Nluc abundance scored as decreased, DMSO-normalised (count); higher = more persistent destabilization
# Details in all cases: K562; 2-18 h
# [1] = biological target: FLT3 (UniProt P36888)
# [2] = biological target: FYN (UniProt P06241)
# [3] = biological target: GSK3A (UniProt P49840)
# [4] = biological target: HER2 (UniProt P04626)
# [5] = biological target: INSRR (UniProt P14616)
# [6] = biological target: IRAK3 (UniProt Q9Y616)
# [7] = biological target: JAK1 (UniProt P23458)
# [8] = biological target: LCK (UniProt P06239)
# [9] = biological target: LIMK1 (UniProt P53667)
# [10] = biological target: LIMK2 (UniProt P53671)
# [11] = biological target: LMTK2 (UniProt Q8IWU2)
# [12] = biological target: LYN (UniProt P07948)
# [13] = biological target: MAP2K1 (UniProt Q02750)
# [14] = biological target: MAP2K2 (UniProt P36507)
# [15] = biological target: MAP4K2 (UniProt Q12851)
# [16] = biological target: MAPK1 (UniProt P28482)
# [17] = biological target: MAPK4 (UniProt P31152)
# [18] = biological target: MAPKAPK2 (UniProt P49137)
# [19] = biological target: MKNK1 (UniProt Q9BUB5)
# [20] = biological target: NTRK2 (UniProt Q16620)
Structure (SMILES),number of time points [1],number of time points [2],number of time points [3],number of time points [4],number of time points [5],number of time points [6],number of time points [7],number of time points [8],number of time points [9],number of time points [10],number of time points [11],number of time points [12],number of time points [13],number of time points [14],number of time points [15],number of time points [16],number of time points [17],number of time points [18],number of time points [19],number of time points [20]
Cc1nc(NC(=O)N2CCC[C@H]2C(N)=O)sc1-c1csc(C(C)(C)C)n1 (10 µM),0,0,0,0,0,0,0,0,0,0,0,0,0,0,0,0,0,0,0,0
O=c1ccc2cc(O)c(O)cc2o1 [Esculetin] (10 µM),0,0,0,0,0,0,0,0,0,0,0,0,0,0,0,0,0,0,0,0
O=C1c2c(O)cc(O)cc2O[C@H](c2cc(O)c(O)c(O)c2)[C@H]1O [Dihydromyricetin] (10 µM),0,0,0,0,0,0,0,0,0,0,0,0,0,0,0,0,0,0,0,0
CC(C)=C/C=C1\O[C@@H]2CC(C)=CC(=O)[C@@H]2[C@]1(C)O [Bisabolangelone] (10 µM),0,0,0,0,0,0,0,0,0,0,0,0,0,0,0,0,0,0,0,0
Cn1cc(-c2ccc3nnc(Sc4ccc5nn(C)cc5c4)n3n2)cn1 [c-Met inhibitor 1] (10 µM),0,0,0,0,0,0,0,0,0,0,0,0,0,0,0,0,0,0,0,0
Oc1ccc2ccccc2c1SSc1c(O)ccc2ccccc12 (10 µM),0,0,0,0,0,0,0,0,0,0,0,0,0,0,0,0,0,0,0,0
O=S(=O)(c1cccc2c(Cl)cccc12)N1CCCNCC1 (10 µM),0,0,0,0,0,0,0,0,0,0,0,0,0,0,0,0,0,0,0,0
O=C(N/N=C/c1ccc([N+](=O)[O-])o1)c1ccc(O)cc1 [Nifuroxazide] (10 µM),3,3,0,1,1,1,3,0,2,3,3,2,0,0,0,0,0,0,3,1
Cc1nc(Nc2ncc(C(=O)Nc3c(C)cccc3Cl)s2)cc(N2CCN(C(=O)CCCCCCC(=O)N[C@H](C(=O)N3C[C@H](O)C[C@H]3C(=O)NCc3ccc(-c4scnc4C)cc3)C(C)(C)C)CC2)n1 (2.5 µM),3,3,1,2,3,3,3,2,3,2,1,2,0,0,0,1,1,2,1,1
CS(=O)(=O)N1CCc2c(-c3cnc(N)nc3)nc(N3CCOCC3)nc21 (10 µM),0,0,0,0,0,0,0,0,0,0,0,1,0,0,0,0,0,0,0,0
Cc1ncc(F)c(Nc2n[nH]c3c2CN(C(=O)N2C[C@@H](C)N(CC4CCOCC4)C[C@@H]2C)C3(C)C)n1 (10 µM),0,0,0,0,0,0,0,0,0,0,0,0,0,0,0,0,0,0,0,0
COc1ncc2cc(C(=O)Nc3cc(C(=O)NCc4cccc(Cl)c4)ccc3Cl)c(=O)[nH]c2n1 (2.5 µM),0,0,0,0,0,0,0,0,0,0,0,0,0,0,0,0,0,0,0,0
CNS(=O)(=O)C[C@H]1CC[C@H](N(C)c2[nH]cnc3nccc2-3)CC1 [Oclacitinib (maleate)] (10 µM),0,0,0,0,0,0,0,0,0,0,0,0,0,0,0,0,0,0,0,0
N#Cc1cn([C@@H]2O[C@H](CO)[C@@H](O)[C@H]2O)c2nc[nH]c(=O)c12 [Jaspamycin] (10 µM),0,0,0,0,0,0,0,0,0,0,0,0,0,0,0,0,0,0,0,0
Cn1cc(-c2ccc3ncc(Cc4ccc5ncccc5c4)n3n2)cn1 (10 µM),0,0,0,0,0,0,0,0,0,0,0,0,0,0,0,0,0,0,0,0
CCCCCC1CC1CC1CC1CCCCCCCC(=O)O (stereo not given) (10 µM),0,0,0,0,0,0,0,0,0,0,0,0,0,0,0,0,0,0,0,0

# An excerpt of these results, with bars between the fields.
Structure (SMILES) | number of time points [1] | number of time points [2] | number of time points [3] | number of time points [4] | number of time points [5] | number of time points [6] | number of time points [7] | number of time points [8] | number of time points [9] | number of time points [10] | number of time points [11] | number of time points [12] | number of time points [13] | number of time points [14] | number of time points [15] | number of time points [16] | number of time points [17] | number of time points [18] | number of time points [19] | number of time points [20]
CNS(=O)(=O)C[C@H]1CC[C@H](N(C)c2[nH]cnc3nccc2-3)CC1 [Oclacitinib (maleate)] (10 µM) | 0 | 0 | 0 | 0 | 0 | 0 | 0 | 0 | 0 | 0 | 0 | 0 | 0 | 0 | 0 | 0 | 0 | 0 | 0 | 0
N#Cc1cn([C@@H]2O[C@H](CO)[C@@H](O)[C@H]2O)c2nc[nH]c(=O)c12 [Jaspamycin] (10 µM) | 0 | 0 | 0 | 0 | 0 | 0 | 0 | 0 | 0 | 0 | 0 | 0 | 0 | 0 | 0 | 0 | 0 | 0 | 0 | 0

# Further records follow.

Structure (SMILES),number of time points [1],number of time points [2],number of time points [3],number of time points [4],number of time points [5],number of time points [6],number of time points [7],number of time points [8],number of time points [9],number of time points [10],number of time points [11],number of time points [12],number of time points [13],number of time points [14],number of time points [15],number of time points [16],number of time points [17],number of time points [18],number of time points [19],number of time points [20]
C[C@@H]1CN(CC(=O)Nc2ccc3c(c2)Cc2cccc(-c4cc(=O)cc(N5CCOCC5)o4)c2S3)C[C@H](C)O1 (2.5 µM),0,0,0,0,0,0,0,0,0,0,0,0,0,0,0,0,0,0,0,0
CCc1nc(C(N)=O)c(Nc2ccc(N3CCC(N4CCN(C)CC4)CC3)c(OC)c2)nc1NC1CCC(OC)CC1 (stereo not given) [EML4-ALK kinase inhibitor 1] (2.5 µM),0,0,0,0,0,0,0,0,0,0,0,0,0,0,0,0,0,0,0,0
Cc1cc(/C=C2\CC/C(=C\c3cc(C)c(O)c(C)c3)C2=O)cc(C)c1O [Pentagamavunon-1] (2.5 µM),0,0,0,0,0,0,0,0,0,0,0,0,0,0,0,2,0,0,0,0
CC(C)(C)S(=O)(=O)c1ccc2nccc(Nc3n[nH]c4ccc(F)cc34)c2c1 (10 µM),0,0,0,0,0,0,0,0,0,0,0,0,0,0,0,0,0,0,0,0
C[C@H]1CNC(=O)c2cnn3ccc(nc23)N[C@H](C)c2cc(F)ccc2O1 [Repotrectinib] (2.5 µM),0,1,0,0,2,1,0,0,3,1,0,0,0,0,0,0,0,0,0,0
COc1cc(/C=C/c2ccc(NC(=O)/C=C/c3cc(OC)c(OC)c(OC)c3)cc2)cc(OC)c1 (2.5 µM),0,0,0,0,0,0,0,0,0,0,0,0,0,0,0,0,0,0,0,0
Cc1ccc(CNC(=O)N2CCC[C@]3(CCN(Cc4ccc(Cl)c(Cl)c4)C3)C2)cc1 (10 µM),0,0,0,0,0,0,0,0,0,0,0,0,0,0,0,0,0,0,0,0
CCn1c(-c2nonc2N)nc2c(C#CCO)ncc(OCCCN)c21 [AKT Kinase Inhibitor] (10 µM),0,3,0,0,0,0,0,0,0,0,0,0,0,0,0,0,0,0,0,0
O=C(Nc1ncc(SCCN2CCCC2)s1)[C@]1(c2ccc(S(=O)(=O)C3CC3)cc2)C[C@H]1C1CCCCC1 [Globalagliatin] (2.5 µM),0,0,0,0,0,0,0,0,0,0,0,0,0,0,0,0,0,0,0,0
CNS(=O)(=O)Nc1nccc(Cc2c(C)c3ccc(Oc4ncccn4)cc3oc2=O)c1F (10 µM),3,0,0,0,1,1,0,0,0,0,0,0,0,0,0,0,0,0,0,0
NC(=O)c1cccc2c(N[C@H](CN3CCC3)c3ccc(Cl)c(C(F)(F)F)c3)ncnc12 (10 µM),0,0,0,0,0,0,0,0,4,0,0,0,0,0,0,0,0,0,0,0
O=S(=O)(N=Cc1c(O)ccc2ccccc12)c1cccs1 (10 µM),0,0,0,0,0,0,0,0,0,0,0,0,0,0,0,0,0,0,0,0
CC(C)n1cnnc1-c1cccc(NC(=O)c2cc3ccc(F)cc3[nH]2)n1 (2.5 µM),3,3,0,3,3,3,3,0,3,0,3,0,0,0,0,0,0,0,3,1
C[C@@H]1O[C@@H](O[C@H]2[C@H](OC(=O)[C@]34CCC(C)(C)C[C@H]3C3=CC[C@@H]5[C@@]6(C)C[C@H](O)[C@H](O[C@@H]7O[C@H](CO)[C@@H](O)[C@H](O)[C@H]7O)C(CO)(CO)[C@@H]6CC[C@@]5(C)[C@]3(C)C[C@H]4O)OC[C@H](O)[C@@H]2O)[C@H](O)[C@H](O)[C@H]1O[C@@H]1OC[C@@H](O)[C@H](O[C@@H]2OC[C@](O)(CO)[C@H]2O)[C@H]1O [Platycodin D] (10 µM),0,0,0,0,0,0,0,0,0,0,0,0,0,0,0,0,0,0,0,0
CC(C)(C)S(=O)(=O)c1cc2c(Nc3ccc4scnc4c3)ccnc2cc1OCCOCCOCCOCCOCC(=O)Nc1cccc2c1CN(C1CCC(=O)NC1=O)C2=O (stereo not given) [PROTAC RIPK degrader-6] (10 µM),0,0,0,0,0,0,0,0,0,0,0,0,0,0,0,0,0,0,0,0
COc1cccc(Nc2ncnn3ccc(CN4CC[C@@H](N)[C@H](O)C4)c23)c1 (2.5 µM),1,0,0,0,4,0,0,0,2,0,0,0,0,0,0,0,0,0,1,0
